From ChEMBL document CHEMBL1275285, “Synthesis, antimicrobial and anti-inflammatory activities of novel 5-(1-adamantyl)-1,3,4-thiadiazole derivatives” (2010)
In brackets after ≈: the same amount, converted by molar mass.

Tested on: Staphylococcus aureus
Experiment: Antimicrobial activity against Staphylococcus aureus IFO 3060 after 24 hrs
Format: functional
Settings: IFO 3060, 24 h
Procedure, shortened: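 MIC by two-fold serial dilution in wells, inoculated with microbial suspensions at 10^6 CFU/mL. Incubation was at 36 °C for 24 h (bacteria) or 48 h (C. albicans). MIC was the lowest concentration fully inhibiting visible growth, read by unaided eye.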

CC1(C)S[C@@H]2[C@H](NC(=O)[C@H](N)c3ccccc3)C(=O)N2[C@H]1C(=O)O [AMPICILLIN]
MIC: 2 µg/mL (≈ 5.72 µM)
